Read-outs that look alike come from different tables or passages of the source. The structures given here were assigned with low confidence; some may be wrong.
How the values were obtained:
[1] = target: recombinant rhesus mineralocorticoid receptor (Macaca mulatta, UniProt A0A5F8ATS5); assay: Mineralocorticoid receptor binding affinity, [3H]-aldosterone filter binding assay
[2] = target: Cav1.2 (Homo sapiens, UniProt Q13936); assay: Calcium channel block, FLIPR TETRA fluorescence assay in HEK293 cells expressing L-type calcium channels; conditions: 25 mM potassium

Sequences of proteins named here, by UniProt entry; tags and fusion partners are left off. Residues count along the entry.
UniProt A0A5F8ATS5, 1-984: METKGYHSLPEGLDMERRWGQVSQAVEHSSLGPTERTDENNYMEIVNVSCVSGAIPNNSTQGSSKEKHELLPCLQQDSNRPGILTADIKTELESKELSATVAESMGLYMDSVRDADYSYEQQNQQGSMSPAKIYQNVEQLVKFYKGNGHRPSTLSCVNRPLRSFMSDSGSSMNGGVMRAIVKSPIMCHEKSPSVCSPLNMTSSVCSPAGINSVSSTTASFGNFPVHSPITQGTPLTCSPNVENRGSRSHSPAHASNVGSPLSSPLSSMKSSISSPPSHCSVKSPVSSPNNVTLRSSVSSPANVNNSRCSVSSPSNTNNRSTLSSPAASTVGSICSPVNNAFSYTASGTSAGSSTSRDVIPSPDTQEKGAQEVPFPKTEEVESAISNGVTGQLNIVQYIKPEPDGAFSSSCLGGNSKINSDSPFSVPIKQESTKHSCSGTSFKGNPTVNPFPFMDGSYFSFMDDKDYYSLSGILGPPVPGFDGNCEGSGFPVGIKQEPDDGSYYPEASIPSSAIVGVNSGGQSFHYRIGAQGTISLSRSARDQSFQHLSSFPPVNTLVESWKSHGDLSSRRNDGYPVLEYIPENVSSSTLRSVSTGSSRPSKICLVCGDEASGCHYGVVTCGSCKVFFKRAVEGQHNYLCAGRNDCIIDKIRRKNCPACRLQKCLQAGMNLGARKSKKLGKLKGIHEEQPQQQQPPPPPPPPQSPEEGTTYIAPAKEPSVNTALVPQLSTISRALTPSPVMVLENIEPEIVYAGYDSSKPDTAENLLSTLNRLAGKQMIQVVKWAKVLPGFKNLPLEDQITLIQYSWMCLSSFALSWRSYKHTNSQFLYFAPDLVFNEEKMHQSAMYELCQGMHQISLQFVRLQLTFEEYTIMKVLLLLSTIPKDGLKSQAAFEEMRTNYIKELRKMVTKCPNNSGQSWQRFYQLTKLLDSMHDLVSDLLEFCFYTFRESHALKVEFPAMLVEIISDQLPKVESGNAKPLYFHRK
UniProt Q13936, whole entry: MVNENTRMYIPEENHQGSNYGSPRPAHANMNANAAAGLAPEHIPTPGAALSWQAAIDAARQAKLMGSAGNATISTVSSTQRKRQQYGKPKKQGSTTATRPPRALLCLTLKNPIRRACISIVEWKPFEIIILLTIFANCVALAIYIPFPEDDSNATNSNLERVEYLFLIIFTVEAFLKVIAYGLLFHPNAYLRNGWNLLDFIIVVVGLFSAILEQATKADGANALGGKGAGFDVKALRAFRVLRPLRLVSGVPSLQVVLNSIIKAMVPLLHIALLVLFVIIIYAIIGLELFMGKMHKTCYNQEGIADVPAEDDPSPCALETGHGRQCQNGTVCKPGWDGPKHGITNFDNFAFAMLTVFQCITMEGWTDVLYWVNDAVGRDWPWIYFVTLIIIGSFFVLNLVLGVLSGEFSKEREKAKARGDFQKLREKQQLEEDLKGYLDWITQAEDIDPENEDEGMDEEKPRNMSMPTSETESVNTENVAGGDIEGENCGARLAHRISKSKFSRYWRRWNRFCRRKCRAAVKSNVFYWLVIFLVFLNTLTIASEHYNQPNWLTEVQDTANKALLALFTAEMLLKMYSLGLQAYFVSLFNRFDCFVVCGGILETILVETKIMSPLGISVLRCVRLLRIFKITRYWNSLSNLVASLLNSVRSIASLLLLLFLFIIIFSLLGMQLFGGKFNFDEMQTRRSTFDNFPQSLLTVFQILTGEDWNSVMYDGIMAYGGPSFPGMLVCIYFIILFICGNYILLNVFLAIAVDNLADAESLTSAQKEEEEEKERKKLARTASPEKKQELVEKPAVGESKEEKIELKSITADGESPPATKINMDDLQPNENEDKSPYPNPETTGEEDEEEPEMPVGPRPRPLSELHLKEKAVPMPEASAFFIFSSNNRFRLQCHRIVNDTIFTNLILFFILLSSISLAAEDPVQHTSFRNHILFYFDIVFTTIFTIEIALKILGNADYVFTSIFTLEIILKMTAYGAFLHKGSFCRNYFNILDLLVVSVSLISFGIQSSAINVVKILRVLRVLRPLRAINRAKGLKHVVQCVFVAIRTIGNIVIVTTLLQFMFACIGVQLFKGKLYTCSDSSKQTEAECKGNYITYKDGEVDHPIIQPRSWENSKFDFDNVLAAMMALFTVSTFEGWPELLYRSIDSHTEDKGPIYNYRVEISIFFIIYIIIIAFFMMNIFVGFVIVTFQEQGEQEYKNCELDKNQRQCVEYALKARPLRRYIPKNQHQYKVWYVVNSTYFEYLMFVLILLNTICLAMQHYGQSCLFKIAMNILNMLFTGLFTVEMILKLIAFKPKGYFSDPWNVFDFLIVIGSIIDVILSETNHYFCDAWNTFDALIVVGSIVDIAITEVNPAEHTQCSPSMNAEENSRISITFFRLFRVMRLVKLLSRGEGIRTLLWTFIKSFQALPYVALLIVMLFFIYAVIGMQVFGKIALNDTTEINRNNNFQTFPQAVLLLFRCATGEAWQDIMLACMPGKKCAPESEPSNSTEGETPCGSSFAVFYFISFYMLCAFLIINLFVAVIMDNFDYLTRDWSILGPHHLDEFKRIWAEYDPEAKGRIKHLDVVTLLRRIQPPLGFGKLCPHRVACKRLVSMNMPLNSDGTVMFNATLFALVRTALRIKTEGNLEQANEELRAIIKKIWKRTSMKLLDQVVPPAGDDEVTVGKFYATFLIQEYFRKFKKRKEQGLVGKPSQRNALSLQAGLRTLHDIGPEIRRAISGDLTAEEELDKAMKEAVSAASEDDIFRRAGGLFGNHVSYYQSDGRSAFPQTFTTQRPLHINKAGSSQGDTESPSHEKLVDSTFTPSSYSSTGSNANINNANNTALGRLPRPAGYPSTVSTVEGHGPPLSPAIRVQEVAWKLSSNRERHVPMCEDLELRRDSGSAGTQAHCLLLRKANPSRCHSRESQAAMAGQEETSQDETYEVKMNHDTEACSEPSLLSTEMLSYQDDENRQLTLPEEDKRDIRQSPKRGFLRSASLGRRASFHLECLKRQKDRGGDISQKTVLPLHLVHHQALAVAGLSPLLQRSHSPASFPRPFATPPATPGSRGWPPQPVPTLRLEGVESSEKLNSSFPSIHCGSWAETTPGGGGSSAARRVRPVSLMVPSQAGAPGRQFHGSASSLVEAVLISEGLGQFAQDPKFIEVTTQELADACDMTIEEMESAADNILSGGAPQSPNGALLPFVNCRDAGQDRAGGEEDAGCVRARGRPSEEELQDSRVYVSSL
UniProt Q08289, whole entry partner: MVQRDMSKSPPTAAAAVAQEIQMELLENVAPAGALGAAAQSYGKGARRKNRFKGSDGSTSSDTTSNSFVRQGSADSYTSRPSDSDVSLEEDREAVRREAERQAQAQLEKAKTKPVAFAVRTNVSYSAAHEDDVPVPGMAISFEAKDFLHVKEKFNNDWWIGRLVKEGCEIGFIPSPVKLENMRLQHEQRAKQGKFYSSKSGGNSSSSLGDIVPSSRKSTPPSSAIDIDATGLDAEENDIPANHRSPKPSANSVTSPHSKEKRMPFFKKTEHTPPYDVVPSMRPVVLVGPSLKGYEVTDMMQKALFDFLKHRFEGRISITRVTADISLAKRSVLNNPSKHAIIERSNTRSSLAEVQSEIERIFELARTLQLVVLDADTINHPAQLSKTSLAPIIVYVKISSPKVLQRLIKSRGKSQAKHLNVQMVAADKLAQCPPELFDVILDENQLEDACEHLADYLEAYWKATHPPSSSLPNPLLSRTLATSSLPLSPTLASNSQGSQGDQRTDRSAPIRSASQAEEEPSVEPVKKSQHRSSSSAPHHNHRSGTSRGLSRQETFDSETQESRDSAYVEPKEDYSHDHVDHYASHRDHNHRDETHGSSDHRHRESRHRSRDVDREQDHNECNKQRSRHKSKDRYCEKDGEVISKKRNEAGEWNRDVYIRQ
UniProt P54289, 25-946 partner limits assumed: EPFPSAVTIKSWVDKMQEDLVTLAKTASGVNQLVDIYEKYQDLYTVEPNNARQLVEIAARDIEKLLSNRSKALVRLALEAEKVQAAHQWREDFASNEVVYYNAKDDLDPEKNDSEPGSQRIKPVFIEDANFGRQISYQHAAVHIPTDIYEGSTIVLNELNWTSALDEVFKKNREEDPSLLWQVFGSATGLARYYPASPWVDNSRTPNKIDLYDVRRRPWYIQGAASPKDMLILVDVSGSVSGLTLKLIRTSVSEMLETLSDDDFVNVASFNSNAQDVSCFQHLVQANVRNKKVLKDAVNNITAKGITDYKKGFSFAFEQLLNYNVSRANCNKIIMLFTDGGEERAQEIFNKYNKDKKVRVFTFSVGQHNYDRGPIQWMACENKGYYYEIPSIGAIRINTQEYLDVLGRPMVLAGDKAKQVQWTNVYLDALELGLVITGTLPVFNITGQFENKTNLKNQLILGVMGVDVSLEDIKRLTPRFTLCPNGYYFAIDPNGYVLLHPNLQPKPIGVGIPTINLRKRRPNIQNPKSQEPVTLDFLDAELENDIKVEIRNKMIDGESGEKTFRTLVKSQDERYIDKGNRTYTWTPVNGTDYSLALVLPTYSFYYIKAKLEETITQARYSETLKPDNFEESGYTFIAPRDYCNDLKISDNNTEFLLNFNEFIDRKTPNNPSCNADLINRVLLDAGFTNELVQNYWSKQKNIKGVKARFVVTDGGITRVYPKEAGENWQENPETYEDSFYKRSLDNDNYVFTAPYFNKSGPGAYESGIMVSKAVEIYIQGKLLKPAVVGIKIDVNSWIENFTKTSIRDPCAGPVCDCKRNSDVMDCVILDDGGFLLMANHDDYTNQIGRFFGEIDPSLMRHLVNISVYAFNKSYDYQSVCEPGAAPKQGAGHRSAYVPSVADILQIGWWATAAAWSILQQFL
UniProt P54289, 947-1103 partner limits assumed: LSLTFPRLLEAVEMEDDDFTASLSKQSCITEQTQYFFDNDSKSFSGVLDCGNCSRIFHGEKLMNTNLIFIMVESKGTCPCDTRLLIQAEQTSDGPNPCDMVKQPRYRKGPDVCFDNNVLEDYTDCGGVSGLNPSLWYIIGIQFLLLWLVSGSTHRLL

COc1cc(C2C(C(=O)OCc3ccccc3)=C(C)NC(C)=C2C(=O)OCc2ccccc2)ccc1O showed a Ki ([1]; read-out: MRBIND Ki (nM) Average, average of Rep#1 and Rep#2) of 21.5 nM, a Ki ([1]; read-out: MRBIND Ki (nM) Rep#1, replicate 1) of 32 nM and a Ki ([1]; read-out: MRBIND Ki (nM) Rep#2, replicate 2) of 11 nM. For the same molecule, the “FLIPRIETRA Cav1.2 % Inhibition 0.3 μM” value ([2]; 0.3 μM compound) was 45%, the “FLIPRIETRA Cav1.2 % Inhibition 1 μm” value ([2]; 1 μm compound) was 76% and the “FLIPRIETRA Cav1.2 % Inhibition 3 μm” value ([2]; 3 μm compound) was 87%. The “FLIPRIETRA Cav1.2 % Inhibition 10 μm” value ([2]; 10 μm compound) was 93% and the “FLIPRIETRA Cav1.2 % Inhibition 30 μm” value ([2]; 30 μm compound) was 106%.

From patent US20100261765A1, “MINERALOCORTICOID RECEPTOR MODULATORS” (priority 2007, published 2010)
